Results are given in words; binding and its absence hold for the method and conditions named. In cells and extracts the contact can be indirect. Binding calls can cover weak binding; strength is not graded here. Tags and fused reporters may be left off the sequences shown.
Experiments:
Assay in all cases: GST pull-down
[1] = biological target: rice NF-YC4 homolog Os2g07450 (Oryza sativa (rice))
[2] = biological target: soybean NF-YC4 homolog Glyma04g37291 (Glycine max (soybean))
[3] = biological target: soybean NF-YC4 homolog Glyma06g17780 (Glycine max (soybean))
[4] = biological target: rice NF-YC4 homolog Os6g45640 (Oryza sativa (rice))
[5] = biological target: rice NF-YC4 homolog Os3g14669 (Oryza sativa (rice))

Measured: binding

B1: GST-QQS fusion protein (protein, not shown: a dimerising Fc or GST)
chain: MKTNREQEIYVERSFKPNNSTIQNLMDIERFILPHTSTSGVARLKMRVISWVGLQFYNY
binds: all assays above
